Measured values reported in US20250011351A1, “[…] O-ACETYLPSILOCIN, SALTS AND SOLID STATE FORMS THEREOF” (Terran Biosciences Inc., priority 2021, published 2025).
For at least one compound, name, drawing or mass did not settle the structure.

Amino acid sequences for entries named in this document (tags omitted).
UniProt P35363, whole entry: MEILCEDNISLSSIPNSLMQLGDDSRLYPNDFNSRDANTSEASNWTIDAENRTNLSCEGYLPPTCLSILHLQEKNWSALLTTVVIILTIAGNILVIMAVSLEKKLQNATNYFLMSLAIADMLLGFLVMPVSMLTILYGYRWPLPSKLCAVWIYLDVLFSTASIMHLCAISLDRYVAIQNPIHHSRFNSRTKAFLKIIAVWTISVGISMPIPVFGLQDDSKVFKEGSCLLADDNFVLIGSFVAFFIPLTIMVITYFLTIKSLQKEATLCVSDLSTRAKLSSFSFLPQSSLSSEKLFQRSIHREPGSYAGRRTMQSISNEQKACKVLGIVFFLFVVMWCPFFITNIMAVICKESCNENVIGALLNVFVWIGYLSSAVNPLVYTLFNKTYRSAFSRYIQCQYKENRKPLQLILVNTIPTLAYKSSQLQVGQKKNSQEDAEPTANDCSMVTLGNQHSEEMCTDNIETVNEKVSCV

Key:
[1] = biological target: T1, 5-HT2A receptors (Mus musculus, UniProt P35363); experiment: Psilocybin-induced head-twitch response in mice, antagonist given i.v. 7 min after psilocybin; format: in vivo, C57BL/6J mice
T1 construct: from tissue; host or cells: whole living C57BL/6J mice (in vivo behavioural assay)
Source text: The head-shake response is elicited by a wide variety of known hallucinogens such as LSD, psilocybin, psilocin, N,N-dimethyltryptamine (DMT), and mescaline as well as serotonin-releasing agents and direct 5-HT2 agonists. […] Later studies have confirmed 5-HT2A receptors are the primary, direct mediators of the response and that the headshake response in rats is essentially the same as head-twitches in mice, at least in regards to similarity in appearance and 5-HT2A receptor dependence.
Male C57BL/6J mice (approximately 25 g) were group housed. Animals were maintained under a 12 h light/dark cycle, at 23° C. with humidity controlled.
At T=−60 min, C57BL/6J mice were individually housed into transparent observation cages with bedding removed and left to habituate. At T=−3 min, mice were placed into heated cages at 40° C. At T=0 h, groups of 3 mice were dosed intraperitoneally with psilocybin (2 mg/kg). Following dosing, mice were replaced into the heated cages and head-twitch responses continuously scored for 7 min. […] Mice were replaced into the observation cages and head twitch behavior were monitored until 40 min after agonist dosing. Cumulative head-twitches were measured every 2 minutes until 40 minutes after agonist dosing.
(§1) At T=−60 min, C57BL/6J mice were individually housed into transparent observation cages with bedding removed and left to habituate. […] Following dosing, mice were replaced into the heated cages and head-twitch responses continuously scored for 7 min. […] Mice were replaced into the observation cages and head twitch behavior was monitored until 40 min after agonist dosing. Cumulative head-twitch behavior was measured every 2 minutes until 40 minutes after agonist dosing.
as §1, with “Cumulative head-twitch behavior was measured every 2 minutes until 40 minutes after agonist dosing.” left out

[2] = Dynamic vapor sorption (DVS) analysis with XRPD of the post-DVS specimen; format: physicochemical; conditions: XRPD after the DVS experiment (5 to 95% RH and back)
Description: (§2) DVS analysis was carried out using a TA Instruments Q5000 Dynamic Vapor Sorption analyzer. The instrument was calibrated with standard weights and a sodium bromide standard for humidity. Approximately 10-25 mg of sample was loaded into a metal-coated quartz pan for analysis. The sample was analyzed at 25° C. with a maximum equilibration time of one hour in 10% relative humidity (RH) steps from 5 to 95% RH (adsorption cycle) and from 95 to 5% RH (desorption cycle). The movement from one step to the next occurred either after satisfying the equilibrium criterion of 0.01% weight change or, if the equilibrium criterion was not met, after one hour. The percent weight change values were calculated using Microsoft Excel®.
as §2, with “Dynamic Vapor Sorption (DVS)” for “DVS”, “is” for “was”, “The movement from one step to the next occurred either after satisfying the equilibrium criterion of 0.01% weight change or, if the equilibrium criterion was not met, after one hour.” left out, “is” for “were”, “Excel.” for “Excel®.”

Row | Compound | effect on psilocybin-induced head-twitch response ([1]; antagonist 1 mg/kg i.v. 7 min after psilocybin 2 mg/kg i.p., cumulative head twitches until 40 min, groups of 3 mice) | effect on psilocybin-induced head twitch, summary of Examples 13-21 ([1]; antagonist administered after psilocybin, compared to vehicle-treated mice, dose not restated) | Result (suppression of psilocybin-induced head twitch) ([1]; psilocybin 2 mg/kg i.p., 5HT2A antagonist i.v. at T=7 min, head twitches scored to 40 min) | solid form of the post-DVS specimen [2]
1 | CN(C)CCO/N=C(/C=C/c1ccc(O)cc1)c1ccccc1F [eplivanserin] | completely suppressed | full ending | Full suppression of head twitch | –
2 | CN(C)CCc1c[nH]c2cccc(OP(=O)(O)O)c12 [psilocybin Form A, psilocybin] | – | – | – | Form B
